{
  "source": "patent US4407818A",
  "about": "“Anti viral, anti bacterial and/or anti fungal composition containing metal oxyalkylate” (Bio-Systems Research, Inc., priority 1981, dated 1983)",
  "key": {"[1]": {"tested_on": "Echo 5", "assay": "CPE trial on Echo 5 (Examples 12-14)", "assay_type": "cell-based", "conditions": "BGM cells; control 10^-6.25"}, "[2]": {"tested_on": "Polio 1", "assay_type": "cell-based", "conditions": "BGM cells; control 10^-7"}, "[3]": {"tested_on": "HSV-1", "assay": "CPE trial on HSV-1 (Examples 15-16)", "assay_type": "cell-based, Herpes simplex virus type I", "conditions": "BGM cells; control 10^-3.5"}},
  "note": "At least one compound was matched to its structure with a doubt left.",
  "data": [
    {"smiles": "CC(=O)[O-].CC(=O)[O-].CC(=O)[O-].CC(=O)[O-].CC(=O)[O-].CC(=O)[O-].[Mn+2].[Mn+2].[Mn+2].[Mn+2].[O-2]", "note": "[Manganese compound, Magnanese oxyacetate]", "values": [
      {"measurement": "Approximate titer based on 4+ (100%) CPE, Echo 5", "setting": "[1]", "result": "10^-6.0"},
      {"measurement": "Approximate titer based on 4+ (100%) CPE, Polio 1", "setting": "[2]", "result": "10^-7.5"},
      {"measurement": "Approximate titer based on 4+ (100%) CPE, HSV-1", "setting": "[3]", "result": "10^-3.0"}
    ]}
  ]
}
